Laboratory results taken from PubChem BioAssay AID230 (DTP/NCI, 2004).
The list is a part of this screen's results and no random one: it is rich in T/C values a quarter to a half above the control, in often repeated tests (any T/C) and in doses without a T/C. Further doses and runs are listed elsewhere. T/C gives the treated animals as a percentage of the vehicle group. Some entries give survivors of the animals treated and no T/C: the source holds a T/C of zero for them, seemingly a mark for toxic or unscored doses. Some doses without a T/C left all or most animals alive at the check, yet need not have been tolerated: survival well below the control is almost never listed, so the zero probably covers shortened survival too. Counts of survivors are from the toxicity check (mostly the fifth day) where no day follows; animals may have died later. Schedule codes are those of the source, taken here to give the interval after Q, in days (D) or hours (H), and the number of doses after X. Some entries were tested several times; their values stand side by side, smallest first. Where survival is the endpoint, the PubChem record calls one and a half times the control and up active, and a quarter to a half above the control has no call in these data; cut-offs in other NCI protocols can differ.

Tested on: C3H/He mice, Gardner lymphosarcoma 6C3HED ip, survival T/C
Assay: NCI In Vivo Anticancer Drug Screen. Data for tumor model Lymphosarcoma Gardner 6C3HED (intraperitoneal) in C3H/He mice
Conditions: higher T/C = longer survival
Procedure: The antitumor activity of compounds was measured in mice bearing transplantable tumors. Survival or tumor size were measured and the results are expressed as the measurement made in the treated group (T) divided by the measurement made in the vehicle treated control group (C). The tumor model used in this assay is Lymphosarcoma Gardner 6C3HED (intraperitoneal) in C3H/He mice

[1] = T/C endpoint: survival time, mean or median, dose: 40.0 mg/kg/injection, schedule: Q01DX010 (ip), vehicle: saline
[2] = T/C endpoint: survival time, mean or median, dose: 80.0 mg/kg/injection, schedule: Q01DX010 (ip), vehicle: saline
[3] = T/C endpoint: survival time, mean or median, dose: 250.0 mg/kg/injection, schedule: Q01DX010 (ip), vehicle: saline
[4] = T/C endpoint: survival time, mean or median, dose: 31.3 mg/kg/injection, schedule: Q01DX010 (ip), vehicle: saline
[5] = T/C endpoint: survival time, mean or median, dose: 62.5 mg/kg/injection, schedule: Q01DX010 (ip), vehicle: saline
[6] = T/C endpoint: survival time, mean or median, dose: 125.0 mg/kg/injection, schedule: Q01DX010 (ip), vehicle: saline
[7] = T/C endpoint: survival time, mean or median, dose: 500.0 mg/kg/injection, schedule: Q01DX010 (ip), vehicle: saline
[8] = T/C endpoint: survival time, mean or median, dose: 50.0 mg/kg/injection, schedule: Q01DX010 (ip), vehicle: saline
[9] = T/C endpoint: survival time, mean or median, dose: 100.0 mg/kg/injection, schedule: Q01DX010 (ip), vehicle: saline
[10] = T/C endpoint: survival time, mean or median, dose: 200.0 mg/kg/injection, schedule: Q01DX010 (ip), vehicle: saline
[11] = T/C endpoint: survival time, mean or median, dose: 400.0 mg/kg/injection, schedule: Q01DX010 (ip), vehicle: saline
[12] = T/C endpoint: survival time, mean or median, dose: 20.0 mg/kg/injection, schedule: Q01DX010 (ip), vehicle: saline
[13] = T/C endpoint: survival time, mean or median, dose: 10.0 mg/kg/injection, schedule: Q01DX010 (ip), vehicle: saline
[14] = T/C endpoint: survival time, mean or median, dose: 300.0 mg/kg/injection, schedule: Q01DX010 (ip), vehicle: saline
[15] = T/C endpoint: survival time, mean or median, dose: 25.0 mg/kg/injection, schedule: Q01DX010 (ip), vehicle: saline

SMILES: CC(N)(CC(=O)O)C(=O)O (stereo unspecified)
- survivor count (T/C endpoint: median survival time, dose: 6.25 mg/kg/injection, schedule: Q01DX009 (ip), vehicle: saline): 6 of 6
- survivor count (T/C endpoint: median survival time, dose: 25.0 mg/kg/injection, schedule: Q01DX009 (ip), vehicle: saline): 6 of 6
- survivor count (T/C endpoint: median survival time, dose: 50.0 mg/kg/injection, schedule: Q01DX009 (ip), vehicle: saline): 6 of 6

SMILES: CC1CCOS(=O)O1 (stereo unspecified)
- survivor count [1]: 6 of 6
- survivor count [2]: 6 of 6

SMILES: CCN(CC)C(=S)S
- survivor count [3]: 6 of 6
- survivor count (T/C endpoint: survival time, mean or median, dose: 1000.0 mg/kg/injection, schedule: Q01DX010 (ip), vehicle: saline): 5 of 6

SMILES: Nc1c(Br)cc2c(c1Br)Cc1cc([N+](=O)[O-])ccc1-2
- survivor count (T/C endpoint: survival time, mean or median, dose: 15.6 mg/kg/injection, schedule: Q01DX010 (ip), vehicle: saline): 6 of 6
- survivor count [4]: 6 of 6
- survivor count [5]: 6 of 6
- survivor count [6]: 6 of 6
- survivor count [3]: 6 of 6
- survivor count [7]: 6 of 6

SMILES: O=C1C(NC(=O)C2CCCCC2)=C(N2CC2)C(=O)C(NC(=O)C2CCCCC2)=C1N1CC1
- survivor count [8]: 6 of 6
- survivor count [9]: 6 of 6
- survivor count [10]: 6 of 6
- survivor count [11]: 6 of 6

SMILES: CN(C)/N=N/c1nc[nH]c1C(N)=O
- survivor count [11]: 5 of 6

SMILES: CCCSc1ncnc2nc[nH]c12
- survivor count [4]: 6 of 6
- survivor count [5]: 6 of 6

SMILES: CC[C@@H](c1ccc(O)cc1)[C@@H](CC)c1ccc(O)cc1
- survivor count (T/C endpoint: survival time, mean or median, dose: 200.0 mg/kg/injection, schedule: Q01DX010 (sc), vehicle: water): 6 of 6

SMILES: CN1CCN(CCCN2c3ccccc3Sc3ccc(C(F)(F)F)cc32)CC1
- survivor count [12]: 6 of 6
- survivor count [1]: 5 of 6
- survivor count [2]: 4 of 6
- survivor count (T/C endpoint: survival time, mean or median, dose: 160.0 mg/kg/injection, schedule: Q01DX010 (ip), vehicle: saline): 0 of 6

SMILES: NC(CC(=O)O)C(=O)O (stereo unspecified)
- survivor count (T/C endpoint: median survival time, dose: 200.0 mg/kg/injection, schedule: Q01DX005 (ip), vehicle: water): 10 of 10
- survivor count (T/C endpoint: median survival time, dose: 400.0 mg/kg/injection, schedule: Q01DX005 (ip), vehicle: water): 5 of 10 and 6 of 10
- survivor count (T/C endpoint: median survival time, dose: 800.0 mg/kg/injection, schedule: Q01DX005 (ip), vehicle: water): 5 of 10

SMILES: CCC1=C(c2ccc(OC)cc2)CCC(C(=O)O)C1C (stereo unspecified)
- survivor count (T/C endpoint: survival time, mean or median, dose: 200.0 mg/kg/injection, schedule: Q01DX010 (sc), vehicle: steroid suspending solution): 6 of 6

SMILES: NC(Cc1ccc(N(CCCl)CCCl)cc1)C(=O)O (stereo unspecified)
- survivor count [13]: 6 of 6
- survivor count [12]: 5 of 6

SMILES: CS(=O)(=O)OCC(O)C(O)C(O)C(O)COS(C)(=O)=O (stereo unspecified)
- survivor count [8]: 6 of 6

SMILES: CO[C@@H]1[C@@H](OC2OC(C)C(OC3CC(C)(O)C(OC(=O)CC(C)C)C(C)O3)C(N(C)C)C2O)[C@@H](CC=O)C[C@@H](C)C(=O)/C=C/C2O[C@H]2C[C@@H](C)OC(=O)C[C@H]1OC(C)=O (stereo partly specified)
- survivor count (T/C endpoint: survival time, mean or median, dose: 4.7 mg/kg/injection, schedule: Q01DX010 (ip), vehicle: saline): 6 of 6
- survivor count (T/C endpoint: survival time, mean or median, dose: 9.4 mg/kg/injection, schedule: Q01DX010 (ip), vehicle: saline): 6 of 6
- survivor count (T/C endpoint: survival time, mean or median, dose: 37.5 mg/kg/injection, schedule: Q01DX010 (ip), vehicle: saline): 6 of 6
- survivor count (T/C endpoint: survival time, mean or median, dose: 75.0 mg/kg/injection, schedule: Q01DX010 (ip), vehicle: saline): 6 of 6
- survivor count (T/C endpoint: survival time, mean or median, dose: 150.0 mg/kg/injection, schedule: Q01DX010 (ip), vehicle: saline): 6 of 6
- survivor count [14]: 6 of 6

SMILES: COC1C(OC(=O)/C=C/C=C/C=C/C=C/C(=O)O)CCC2(CO2)C1C1(C)OC1CC=C(C)C (stereo unspecified)
- survivor count [15]: 6 of 6
- survivor count [8]: 6 of 6
- survivor count [9]: 6 of 6
- survivor count [10]: 3 of 6

SMILES: COc1cc(-c2ccc(Nc3ccccc3C(=O)O)c(OC)c2)ccc1Nc1ccccc1C(=O)O
- survivor count [9]: 4 of 6
- survivor count [10]: 4 of 6

SMILES: CCN(CCNc1ccc(C)c2sc3cc(Cl)ccc3c(=O)c12)CC(C)O (stereo unspecified)
- survivor count [4]: 5 of 6
- survivor count [5]: 6 of 6
- survivor count [6]: 6 of 6
- survivor count [3]: 3 of 6 and 4 of 6
- survivor count [7]: 0 of 6

SMILES: CN(C)CC(=O)c1ccc(O)c(O)c1
- T/C [10]: 130 and 138 % of control
- T/C [14]: 138 % of control
- T/C (T/C endpoint: survival time, mean or median, dose: 450.0 mg/kg/injection, schedule: Q01DX010 (ip), vehicle: saline): 133 and 134 % of control
- T/C (T/C endpoint: survival time, mean or median, dose: 675.0 mg/kg/injection, schedule: Q01DX010 (ip), vehicle: saline): 138 % of control

SMILES: C[C@@H]1C[C@H]2CC[C@H](O2)[C@H](C)C(=O)O[C@@H](C)C[C@@H]2CC[C@@H](O2)[C@@H](C)C(=O)O[C@H](C)C[C@H]2CC[C@H](O2)[C@H](C)C(=O)O[C@@H](C)C[C@@H]2CC[C@@H](O2)[C@@H](C)C(=O)O1
- survivor count [9]: 5 of 6

SMILES: OCCOCCN1CCN(CCCN2c3ccccc3Sc3ccc(C(F)(F)F)cc32)CC1
- survivor count (T/C endpoint: survival time, mean or median, dose: 0.63 mg/kg/injection, schedule: Q01DX010 (ip), vehicle: saline): 6 of 6
- survivor count (T/C endpoint: survival time, mean or median, dose: 1.25 mg/kg/injection, schedule: Q01DX010 (ip), vehicle: saline): 5 of 6
- survivor count (T/C endpoint: survival time, mean or median, dose: 2.5 mg/kg/injection, schedule: Q01DX010 (ip), vehicle: saline): 4 of 6
- survivor count (T/C endpoint: survival time, mean or median, dose: 5.0 mg/kg/injection, schedule: Q01DX010 (ip), vehicle: saline): 5 of 6
- survivor count [13]: 6 of 6
- survivor count [1]: 6 of 6

SMILES: C[C@H]1C(=O)O[C@@H]2CCN3CC=C(COC(=O)[C@](C)(O)[C@@]1(C)O)[C@H]23
- T/C [15]: 145 % of control

SMILES: Nc1nc2n[nH]nc2c(=O)[nH]1
- T/C (T/C endpoint: survival time, mean or median, dose: 25.0 mg/kg/injection, schedule: Q01DX010 (ip), vehicle: alkali diluted with saline): 130 % of control
- T/C (T/C endpoint: survival time, mean or median, dose: 100.0 mg/kg/injection, schedule: Q01DX010 (ip), vehicle: alkali diluted with saline): 127 % of control
- T/C (T/C endpoint: survival time, mean or median, dose: 200.0 mg/kg/injection, schedule: Q01DX010 (ip), vehicle: alkali diluted with saline): 135 % of control

SMILES: Nc1nc(=O)n(C2CC(O)C(CO)O2)cc1Br (stereo unspecified)
- survivor count [11]: 6 of 6
- survivor count (T/C endpoint: survival time, mean or median, dose: 800.0 mg/kg/injection, schedule: Q01DX010 (ip), vehicle: saline): 6 of 6

SMILES: O[C@H](CN1CC1)[C@@H](O)CN1CC1
- T/C (T/C endpoint: survival time, mean or median, dose: 125.0 micrograms/kg/injection, schedule: Q01DX010 (ip), vehicle: saline): 146 % of control
- survivor count (T/C endpoint: survival time, mean or median, dose: 500.0 micrograms/kg/injection, schedule: Q01DX010 (ip), vehicle: saline): 6 of 6
- survivor count (T/C endpoint: survival time, mean or median, dose: 1000.0 micrograms/kg/injection, schedule: Q01DX010 (ip), vehicle: saline): 6 of 6

SMILES: CN1CC[C@]23c4c5ccc(O)c4O[C@H]2C(=O)CC[C@H]3[C@H]1C5
- survivor count (T/C endpoint: survival time, mean or median, dose: 8.0 mg/kg/injection, schedule: Q01DX010 (ip), vehicle: saline): 6 of 6
- survivor count (T/C endpoint: survival time, mean or median, dose: 16.0 mg/kg/injection, schedule: Q01DX010 (ip), vehicle: saline): 6 of 6
- survivor count (T/C endpoint: survival time, mean or median, dose: 64.0 mg/kg/injection, schedule: Q01DX010 (ip), vehicle: saline): 4 of 6

SMILES: Cc1cn(C2OC(CO)C(O)C2O)c(=O)[nH]c1=O (stereo unspecified)
- survivor count [5]: 6 of 6

SMILES: Cc1n[nH]c(=O)[nH]c1=O
- survivor count [7]: 6 of 6

SMILES: O=c1[nH]c(=O)n(C2CC(O)C(CO)O2)cc1C(F)(F)F (stereo unspecified)
- survivor count [3]: 6 of 6
- survivor count [7]: 6 of 6
